Article PMC4615164
Results are given in words; binding and its absence hold for the method and conditions named. Binding seen in cells or lysates may run through a third protein. Some binding calls cover weakened binding; strength is not graded here. Tags and fused reporters may be left off the sequences shown.

Amino acid sequences for entries named in this document (tags omitted).
UniProt P04147: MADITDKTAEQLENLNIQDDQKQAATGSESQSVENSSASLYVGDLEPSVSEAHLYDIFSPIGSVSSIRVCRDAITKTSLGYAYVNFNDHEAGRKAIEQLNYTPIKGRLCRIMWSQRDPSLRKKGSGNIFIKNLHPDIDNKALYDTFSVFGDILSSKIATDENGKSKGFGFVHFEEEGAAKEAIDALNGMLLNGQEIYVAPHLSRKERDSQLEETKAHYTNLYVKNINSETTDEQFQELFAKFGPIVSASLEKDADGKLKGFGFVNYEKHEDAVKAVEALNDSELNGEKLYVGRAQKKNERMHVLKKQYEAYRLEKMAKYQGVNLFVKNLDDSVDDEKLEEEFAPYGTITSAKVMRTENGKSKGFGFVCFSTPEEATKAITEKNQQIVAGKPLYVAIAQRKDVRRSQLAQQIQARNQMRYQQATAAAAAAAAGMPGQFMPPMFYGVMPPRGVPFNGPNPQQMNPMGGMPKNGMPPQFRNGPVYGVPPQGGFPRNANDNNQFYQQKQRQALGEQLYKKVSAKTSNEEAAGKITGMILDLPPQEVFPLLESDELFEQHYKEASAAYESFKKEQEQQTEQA

T1: eIF4E::CBP::ProA (eIF4E tagged with the TAP tag) (yeast (w303a line)) (UniProt P07260)
T1 sequence: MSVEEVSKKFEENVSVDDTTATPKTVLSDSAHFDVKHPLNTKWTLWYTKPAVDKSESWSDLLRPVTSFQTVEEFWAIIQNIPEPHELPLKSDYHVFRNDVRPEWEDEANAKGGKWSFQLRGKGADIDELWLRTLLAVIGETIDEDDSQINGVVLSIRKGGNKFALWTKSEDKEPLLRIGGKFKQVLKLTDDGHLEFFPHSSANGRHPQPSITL

T2: eIF4G1:TEV-ProA (yeast (w303a line)) (UniProt P39935)
T2 sequence: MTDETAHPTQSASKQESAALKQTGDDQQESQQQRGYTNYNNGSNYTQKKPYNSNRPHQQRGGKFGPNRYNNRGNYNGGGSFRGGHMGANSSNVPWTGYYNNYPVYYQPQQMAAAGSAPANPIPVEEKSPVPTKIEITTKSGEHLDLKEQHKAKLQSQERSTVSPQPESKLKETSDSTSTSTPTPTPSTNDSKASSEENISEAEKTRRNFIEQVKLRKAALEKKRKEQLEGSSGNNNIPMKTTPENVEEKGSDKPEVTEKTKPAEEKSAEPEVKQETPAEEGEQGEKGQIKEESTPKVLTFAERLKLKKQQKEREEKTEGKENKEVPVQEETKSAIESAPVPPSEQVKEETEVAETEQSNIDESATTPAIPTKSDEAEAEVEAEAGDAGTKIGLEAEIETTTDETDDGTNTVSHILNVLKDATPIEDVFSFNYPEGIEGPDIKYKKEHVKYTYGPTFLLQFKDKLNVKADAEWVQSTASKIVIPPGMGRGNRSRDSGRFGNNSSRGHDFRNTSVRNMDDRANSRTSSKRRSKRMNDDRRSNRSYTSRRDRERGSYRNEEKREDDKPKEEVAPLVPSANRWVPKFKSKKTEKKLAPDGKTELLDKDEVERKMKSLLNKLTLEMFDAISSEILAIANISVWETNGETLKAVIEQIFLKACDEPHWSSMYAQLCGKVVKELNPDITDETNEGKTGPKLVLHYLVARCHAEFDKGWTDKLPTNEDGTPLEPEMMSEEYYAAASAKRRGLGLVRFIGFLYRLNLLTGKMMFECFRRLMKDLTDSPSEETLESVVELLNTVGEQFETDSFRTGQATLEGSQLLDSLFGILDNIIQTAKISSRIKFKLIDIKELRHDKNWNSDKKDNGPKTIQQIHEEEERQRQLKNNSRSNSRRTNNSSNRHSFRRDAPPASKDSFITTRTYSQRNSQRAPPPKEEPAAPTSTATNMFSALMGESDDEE


Tests used:
Test in all cases: co-IP; ProA-tagged factor purified on human IgG magnetic beads from lysate of yeast cross-linked in vivo with 3% formaldehyde; non-denaturing buffer A (25 mM HEPES pH 7.4, 140 mM KCl, 1.8 mM MgCl2, 0.1% IGEPAL), RNase I digestion (co-purification only marginally affected by RNase treatment), 30 min at 22 °C; western blotting
[1] = biological target: T1, eIF4E::CBP::ProA (eIF4E tagged with the TAP tag) (yeast (w303a line))
[2] = biological target: PAB1::ProA (yeast (w303a line)) (UniProt P04147)
[3] = biological target: T2, eIF4G1:TEV-ProA (yeast (w303a line))

| binding [1] | binding [2] | binding [3] | Molecule |
| --- | --- | --- | --- |
| binds |  |  | C-terminally c-myc tagged PAB protein (PAB1) in the eIF4E::TAP line (from UniProt P04147 1-577) |
|  | binds | binds | C-terminally GFP-tagged eIF4E (eIF4E::GFP) in the PAB::ProA and eIF4G::ProA lines (protein, UniProt P07260 1-213) MSVEEVSKKFEENVSVDDTTATPKTVLSDSAHFDVKHPLNTKWTLWYTKPAVDKSESWSDLLRPVTSFQTVEEFWAIIQNIPEPHELPLKSDYHVFRNDVRPEWEDEANAKGGKWSFQLRGKGADIDELWLRTLLAVIGETIDEDDSQINGVVLSIRKGGNKFALWTKSEDKEPLLRIGGKFKQVLKLTDDGHLEFFPHSSANGRHPQPSITL |
| binds |  |  | eIF4G1 (untagged, detected with the antibody raised against amino acids 542-823 of eIF4G1) (protein, UniProt P39935 1-952) MTDETAHPTQSASKQESAALKQTGDDQQESQQQRGYTNYNNGSNYTQKKPYNSNRPHQQRGGKFGPNRYNNRGNYNGGGSFRGGHMGANSSNVPWTGYYNNYPVYYQPQQMAAAGSAPANPIPVEEKSPVPTKIEITTKSGEHLDLKEQHKAKLQSQERSTVSPQPESKLKETSDSTSTSTPTPTPSTNDSKASSEENISEAEKTRRNFIEQVKLRKAALEKKRKEQLEGSSGNNNIPMKTTPENVEEKGSDKPEVTEKTKPAEEKSAEPEVKQETPAEEGEQGEKGQIKEESTPKVLTFAERLKLKKQQKEREEKTEGKENKEVPVQEETKSAIESAPVPPSEQVKEETEVAETEQSNIDESATTPAIPTKSDEAEAEVEAEAGDAGTKIGLEAEIETTTDETDDGTNTVSHILNVLKDATPIEDVFSFNYPEGIEGPDIKYKKEHVKYTYGPTFLLQFKDKLNVKADAEWVQSTASKIVIPPGMGRGNRSRDSGRFGNNSSRGHDFRNTSVRNMDDRANSRTSSKRRSKRMNDDRRSNRSYTSRRDRERGSYRNEEKREDDKPKEEVAPLVPSANRWVPKFKSKKTEKKLAPDGKTELLDKDEVERKMKSLLNKLTLEMFDAISSEILAIANISVWETNGETLKAVIEQIFLKACDEPHWSSMYAQLCGKVVKELNPDITDETNEGKTGPKLVLHYLVARCHAEFDKGWTDKLPTNEDGTPLEPEMMSEEYYAAASAKRRGLGLVRFIGFLYRLNLLTGKMMFECFRRLMKDLTDSPSEETLESVVELLNTVGEQFETDSFRTGQATLEGSQLLDSLFGILDNIIQTAKISSRIKFKLIDIKELRHDKNWNSDKKDNGPKTIQQIHEEEERQRQLKNNSRSNSRRTNNSSNRHSFRRDAPPASKDSFITTRTYSQRNSQRAPPPKEEPAAPTSTATNMFSALMGESDDEE |
